PubChem BioAssay AID504786, Drosophila RNAi Screening Center, 2011
The deposit covers about 21,000 reagents; shown is a random part of those that have a named target and a result. 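Primary screen; positive scores mean lost reporter signal, so the sign may be inverted from the usual convention.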 The numbers tell different reagents against one gene apart. Names joined by + are all predicted targets of the reagent.

- Purpose: 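Positive regulators of HIF-driven reporter output in Drosophila cells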 (primary screen)
- System: Drosophila S2 cells with a stable HIF luciferase reporter
- Reagent: long dsRNA against Drosophila genes, about 0.2 µg dsRNA per well of a 384-well plate
- Timing: three days of knock-down, then 20 h of DFO before reading
- Treatment: desferrioxamine (DFO) at 100 µM, an iron chelator that mimics hypoxia, for 20 h
- Measurement: 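Firefly luciferase driven by the mouse ldh-a hypoxia-response element, measured after 20 h of 100 µM DFO; z-scores per plate, higher means more signal lost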
- Reading the numbers: z-score: higher = stronger loss of HIF reporter signal

| gene knocked down | dsRNA no. | z-score, replicate 1 | z-score, replicate 2 | z-score, replicate 3 | z-score, replicate 4 |
| --- | --- | --- | --- | --- | --- |
| CG14630 | 1 | -0.3 | -0.5 | – | – |
| CG14630 | 2 | -0.3 | -0.1 | – | – |
| spn-A (spindle A) | 1 | -0.2 | 1.8 | – | – |
| TpnC41C (Troponin C at 41C) | 1 | -0.2 | 0 | – | – |
| Fntb (Farnesyl transferase beta subunit) | 1 | -0.3 | -0.6 | – | – |
| CG13002 | 1 | 0 | 0.3 | – | – |
| bs (blistered) | 1 | -0.3 | 0 | 4.4 | 3 |
| Ugt37A3 (UDP-glycosyltransferase family 37 member A3) | 1 | -0.2 | 0.1 | – | – |
| lds (lodestar) | 1 | -0.2 | -0.1 | – | – |
| CG7806 | 1 | -0.3 | 0.3 | – | – |
| Task7 (TWIK-related acid-sensitive K[+] channel 7) | 1 | -0.3 | -0.5 | – | – |
| CG13310 | 1 | -0.3 | -0.3 | – | – |
| Nup50 (Nucleoporin 50kD) | 1 | -0.4 | -0.7 | – | – |
| Ae2 (Anion exchanger 2) | 1 | -0.1 | -0.3 | – | – |
| Ae2 (Anion exchanger 2) | 2 | -0.1 | 0.4 | – | – |
| att-ORFB + DPCoAC | 1 | -0.1 | -0.1 | – | – |
| CG31089 | 1 | -0.3 | -0.6 | – | – |
| Ugt50B3 (UDP-glycosyltransferase family 50 member B3) | 1 | 0 | -0.1 | – | – |
| Ugt50B3 (UDP-glycosyltransferase family 50 member B3) | 2 | 0.1 | -0.1 | – | – |
| Nep3 (Neprilysin 3) | 1 | -0.1 | 0.1 | – | – |
| sll (slalom) | 1 | -0.2 | -0.5 | – | – |

Continued, starting with the last 4 of the part before.
| gene knocked down | dsRNA no. | z-score, replicate 1 | z-score, replicate 2 | z-score, replicate 3 | z-score, replicate 4 |
| --- | --- | --- | --- | --- | --- |
| Ugt50B3 (UDP-glycosyltransferase family 50 member B3) | 1 | 0 | -0.1 | – | – |
| Ugt50B3 (UDP-glycosyltransferase family 50 member B3) | 2 | 0.1 | -0.1 | – | – |
| Nep3 (Neprilysin 3) | 1 | -0.1 | 0.1 | – | – |
| sll (slalom) | 1 | -0.2 | -0.5 | – | – |
| CG42735 (retired record) | 1 | 0.3 | -0.2 | – | – |
| CG4572 | 1 | -0.3 | -0.2 | – | – |
| Cyp313a2 (Cytochrome P450 313a2) | 1 | -0.4 | -0.3 | – | – |
| Tcs5 (Threonyl-carbamoyl synthesis 5) | 1 | -0.3 | 0.5 | – | – |
| CG18302 | 1 | -0.1 | 0.5 | – | – |
| CG3987 | 1 | -0.4 | -0.2 | – | – |
| Lsm10 | 1 | -0.2 | -0.1 | – | – |
| Atg5 (Autophagy-related 5) | 1 | -0.4 | -0.4 | – | – |
| CG13674 | 1 | -0.4 | 2.3 | – | – |
| scaf (scarface) | 1 | -0.3 | 0.5 | – | – |
| Cyp49a1 (Cytochrome P450 49a1) | 1 | 0.2 | -0.1 | – | – |
| Cyp49a1 (Cytochrome P450 49a1) | 2 | -0.3 | -0.5 | – | – |
| CG14367 | 1 | -0.3 | -0.4 | – | – |
